No constants are given. Whether binding was seen depends on the method and setting. Binding seen in cells or lysates may run through a third protein. Some entries that bind do so weakly or less than the wild type.
Target: CXCR4 (human (endogenous in Jurkat)) (UniProt P61073)
Experiment: FRET or BRET; Jurkat CD4 T cells labelled on ice with PE-anti-CXCR4 (12G5) and APC-anti-CD2 (RPA-2.10) or APC-anti-CD3ε (UCHT1); 37°C 30 min with or without 500 ng HIV(NL4-3) viral particles; cold acid wash (pH 2.0) to remove surface antibodies; intracellular FRET read by flow cytometry (FACSCalibur)

Amino acid sequences for entries named in this document (tags omitted). Residues count along the entry.
UniProt P61073: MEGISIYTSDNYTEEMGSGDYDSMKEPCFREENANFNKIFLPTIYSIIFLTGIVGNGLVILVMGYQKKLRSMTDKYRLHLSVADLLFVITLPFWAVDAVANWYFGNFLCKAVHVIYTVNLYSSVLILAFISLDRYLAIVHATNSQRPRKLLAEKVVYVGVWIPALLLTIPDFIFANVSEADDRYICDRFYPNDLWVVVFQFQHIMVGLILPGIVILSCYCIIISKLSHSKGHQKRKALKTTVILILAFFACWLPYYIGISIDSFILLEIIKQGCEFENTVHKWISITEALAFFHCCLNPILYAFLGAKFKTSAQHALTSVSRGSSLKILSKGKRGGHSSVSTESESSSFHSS
UniProt P07766, residues 23-207: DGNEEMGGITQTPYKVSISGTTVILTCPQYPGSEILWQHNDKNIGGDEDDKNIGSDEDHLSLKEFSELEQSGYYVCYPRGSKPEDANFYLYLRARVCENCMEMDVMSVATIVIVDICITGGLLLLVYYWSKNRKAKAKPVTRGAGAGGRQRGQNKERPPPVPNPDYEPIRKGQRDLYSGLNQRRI

Q: Which binding does the source give for “CD3ε chain (from UniProt P07766 23-207) (receptor)” here?
A: Its binding is “binds”.
